According to US20170007595A1, “NSD3 INHIBITORS FOR TREATMENT OF CANCERS” (THE BRIGHAM AND WOMEN'S HOSPITAL, INC., priority 2014, published 2017):
Results are given in words; binding and its absence hold for the method and conditions named. For part of these data: In cells and extracts the contact can be indirect. Some binding calls cover weakened binding; strength is not graded here.

Sequences of proteins named here, by UniProt entry; tags and fusion partners are left off. A change or cut given only in a name is not applied to a line headed by its entry.
UniProt Q9BZ95: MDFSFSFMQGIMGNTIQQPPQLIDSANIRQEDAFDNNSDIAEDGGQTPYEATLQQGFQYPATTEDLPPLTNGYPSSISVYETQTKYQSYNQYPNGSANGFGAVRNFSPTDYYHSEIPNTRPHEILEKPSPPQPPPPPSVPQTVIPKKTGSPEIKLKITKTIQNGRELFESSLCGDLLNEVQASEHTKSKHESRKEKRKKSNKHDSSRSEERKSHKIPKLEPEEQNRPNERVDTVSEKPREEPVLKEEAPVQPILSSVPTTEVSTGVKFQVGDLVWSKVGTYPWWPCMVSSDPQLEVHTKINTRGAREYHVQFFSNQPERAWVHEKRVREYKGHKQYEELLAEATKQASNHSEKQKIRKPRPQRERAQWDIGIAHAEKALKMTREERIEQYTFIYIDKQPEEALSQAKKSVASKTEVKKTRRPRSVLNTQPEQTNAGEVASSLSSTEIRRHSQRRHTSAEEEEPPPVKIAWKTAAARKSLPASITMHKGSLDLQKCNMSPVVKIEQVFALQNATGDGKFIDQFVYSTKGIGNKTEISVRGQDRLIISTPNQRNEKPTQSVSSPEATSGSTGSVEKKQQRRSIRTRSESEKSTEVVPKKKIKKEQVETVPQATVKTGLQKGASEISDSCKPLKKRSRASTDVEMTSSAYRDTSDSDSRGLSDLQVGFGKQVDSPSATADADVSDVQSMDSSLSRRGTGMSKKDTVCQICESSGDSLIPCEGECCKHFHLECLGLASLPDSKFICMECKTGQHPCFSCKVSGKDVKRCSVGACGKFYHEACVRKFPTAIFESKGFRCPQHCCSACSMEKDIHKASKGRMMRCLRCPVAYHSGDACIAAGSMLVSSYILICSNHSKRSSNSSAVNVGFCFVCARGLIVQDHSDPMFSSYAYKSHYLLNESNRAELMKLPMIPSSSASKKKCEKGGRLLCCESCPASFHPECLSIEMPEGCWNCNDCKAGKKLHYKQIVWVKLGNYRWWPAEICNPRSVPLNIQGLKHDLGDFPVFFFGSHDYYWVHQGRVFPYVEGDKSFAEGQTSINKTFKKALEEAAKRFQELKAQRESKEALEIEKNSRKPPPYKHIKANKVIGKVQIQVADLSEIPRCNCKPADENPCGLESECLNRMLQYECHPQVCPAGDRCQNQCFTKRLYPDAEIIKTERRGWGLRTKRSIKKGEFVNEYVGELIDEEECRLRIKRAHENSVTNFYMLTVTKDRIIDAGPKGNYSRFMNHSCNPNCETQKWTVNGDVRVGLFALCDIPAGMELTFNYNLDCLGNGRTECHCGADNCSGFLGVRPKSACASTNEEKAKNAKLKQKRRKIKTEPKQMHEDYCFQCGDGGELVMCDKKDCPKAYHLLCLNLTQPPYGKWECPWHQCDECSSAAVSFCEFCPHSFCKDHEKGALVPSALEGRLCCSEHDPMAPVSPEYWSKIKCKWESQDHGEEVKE

Assays:
[1] = molecular target: HA-tagged BRD4-NUT (human); assay: summary of the co-immunoprecipitation results
[2] = molecular target: BRD4-NUT (endogenous, 797TRex / TC-797 cells) (human); assay: figure legend: immunofluorescence co-localisation (FIG. 4A)
[3] = molecular target: BRD4-NUT (endogenous, 797TRex / TC-797 cells) (human); assay: immunofluorescence microscopy of 797TRex cells, anti-HA and anti-NUT

| binding [1] | binding [2] | binding [3] | Substance |
| --- | --- | --- | --- |
| binds |  |  | NSD3 (endogenous, wild type) (from UniProt Q9BZ95 1-1437) |
|  | binds | binds | HA-NSD3-tr (NSD3 portion of the NSD3-NUT fusion protein) (from UniProt Q9BZ95 1-569) |
